Some of the results follow. The calls rarely recur for the same compound in another form.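 In K562 cells expressing nanoluciferase-fused kinases, luminescence was recorded at 4 h intervals between 2 and 18 h, normalized as percent of control with DMSO at 100% and a positive control at 0%. A significant (2 sigma) signal drop marks a time point as decreased. The authors' rule for a hit is not shown and takes in more than the number of time points.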
Assays:
Assay in all cases: number of time points (of 5) at which kinase-Nluc abundance scored as decreased, DMSO-normalised (count); higher = more persistent destabilization
[1] = compound: C#Cc1cccc(Nc2ncnc3cc(OCCOC)c(OCCO)cc23)c1 [Desmethyl Erlotinib (hydrochloride)]; conditions: 10 µM; K562; 2-18 h
[2] = compound: C#Cc1cccc(Nc2ncnc3cc(OCCOC)c(OCCO)cc23)c1 [Desmethyl Erlotinib]; conditions: 10 µM; K562; 2-18 h
[3] = compound: C#Cc1cccc(Nc2ncnc3cc(OCCOC)c(OCCOC)cc23)c1 [Erlotinib (Hydrochloride)]; conditions: 10 µM; K562; 2-18 h
[4] = compound: C#Cc1cccc(Nc2ncnc3cc(OCCOC)c(OCCOC)cc23)c1 [Erlotinib]; conditions: 10 µM; K562; 2-18 h
[5] = compound: C#Cc1cccc(Nc2ncnc3cc4c(cc23)OCCOCCOCCO4)c1 [Icotinib (Hydrochloride)]; conditions: 10 µM; K562; 2-18 h
[6] = compound: C#Cc1cccc(Nc2ncnc3cc4c(cc23)OCCOCCOCCO4)c1 [Icotinib]; conditions: 10 µM; K562; 2-18 h
[7] = compound: C/C=C1\C(=O)C[C@H]2[C@@H]3CCC4=CC(=O)CC[C@]4(C)[C@H]3CC[C@]12C [(Z)-Guggulsterone]; conditions: 10 µM; K562; 2-18 h
[8] = compound: C/C=C1\C(=O)C[C@H]2[C@@H]3CCC4=CC(=O)CC[C@]4(C)[C@H]3CC[C@]12C [Guggulsterone]; conditions: 10 µM; K562; 2-18 h
[9] = compound: C=CC(=O)N1CCN(c2ncnc3c(F)c(-c4c(O)cccc4F)c(Cl)cc23)CC1; conditions: K562, 2-18 h
[10] = compound: C=CC(=O)Nc1cc(Nc2ncc(C(=O)OC(C)C)c(-c3cn(C)c4ccccc34)n2)c(OC)cc1N(C)CCN(C)C [Mobocertinib (succinate)]; conditions: 10 µM; K562; 2-18 h
[11] = compound: C=CC(=O)Nc1cc(Nc2ncc(C(=O)OC(C)C)c(-c3cn(C)c4ccccc34)n2)c(OC)cc1N(C)CCN(C)C [Mobocertinib]; conditions: 10 µM; K562; 2-18 h
[12] = compound: C=CC(=O)Nc1cc(Nc2nccc(-c3cn(C)c4ccccc34)n2)c(OC)cc1N(C)CCN(C)C [Osimertinib (dimesylate)]; conditions: 2.5 µM; K562; 2-18 h
[13] = compound: C=CC(=O)Nc1cc(Nc2nccc(-c3cn(C)c4ccccc34)n2)c(OC)cc1N(C)CCN(C)C [Osimertinib mesylate]; conditions: 2.5 µM; K562; 2-18 h
[14] = compound: C=CC(=O)Nc1cc(Nc2nccc(-c3cn(C)c4ccccc34)n2)c(OC)cc1N(C)CCN(C)C [Osimertinib]; conditions: 2.5 µM; K562; 2-18 h
[15] = compound: C=CC(=O)Nc1cc(Nc2nccc(-c3cn(C4CC4)c4ccccc34)n2)c(OC)cc1N(C)CCN(C)C [Almonertinib (hydrochloride)]; conditions: 2.5 µM; K562; 2-18 h
[16] = compound: C=CC(=O)Nc1cc(Nc2nccc(-c3cn(C4CC4)c4ccccc34)n2)c(OC)cc1N(C)CCN(C)C [Almonertinib]; conditions: 2.5 µM; K562; 2-18 h
[17] = compound: C=CC(=O)Nc1cc2c(Nc3ccc(F)c(Cl)c3)ncnc2cc1C#CC(C)(C)N1CCN(C)CC1 [AV-412 (free base)]; conditions: 2.5 µM; K562; 2-18 h
[18] = compound: C=CC(=O)Nc1cc2c(Nc3ccc(F)c(Cl)c3)ncnc2cc1C#CC(C)(C)N1CCN(C)CC1; conditions: 2.5 µM; K562; 2-18 h
[19] = compound: CC(=O)N[C@H](Cc1ccc(O)cc1)C(=O)N[C@H](CCCN=C(N)N)C(=O)N[C@H](Cc1ccccc1)C(N)=O; conditions: 10 µM; K562; 2-18 h
[20] = compound: CC(=O)Nc1cccc(-n2c(=O)n(C3CC3)c(=O)c3c(Nc4ccc(I)cc4F)n(C)c(=O)c(C)c32)c1 [Trametinib (DMSO solvate)]; conditions: 10 µM; K562; 2-18 h

Sequences of proteins named here, by UniProt entry; tags and fusion partners are left off. A change or cut given only in a name is not applied to a line headed by its entry.
UniProt Q05397, whole entry, looked up: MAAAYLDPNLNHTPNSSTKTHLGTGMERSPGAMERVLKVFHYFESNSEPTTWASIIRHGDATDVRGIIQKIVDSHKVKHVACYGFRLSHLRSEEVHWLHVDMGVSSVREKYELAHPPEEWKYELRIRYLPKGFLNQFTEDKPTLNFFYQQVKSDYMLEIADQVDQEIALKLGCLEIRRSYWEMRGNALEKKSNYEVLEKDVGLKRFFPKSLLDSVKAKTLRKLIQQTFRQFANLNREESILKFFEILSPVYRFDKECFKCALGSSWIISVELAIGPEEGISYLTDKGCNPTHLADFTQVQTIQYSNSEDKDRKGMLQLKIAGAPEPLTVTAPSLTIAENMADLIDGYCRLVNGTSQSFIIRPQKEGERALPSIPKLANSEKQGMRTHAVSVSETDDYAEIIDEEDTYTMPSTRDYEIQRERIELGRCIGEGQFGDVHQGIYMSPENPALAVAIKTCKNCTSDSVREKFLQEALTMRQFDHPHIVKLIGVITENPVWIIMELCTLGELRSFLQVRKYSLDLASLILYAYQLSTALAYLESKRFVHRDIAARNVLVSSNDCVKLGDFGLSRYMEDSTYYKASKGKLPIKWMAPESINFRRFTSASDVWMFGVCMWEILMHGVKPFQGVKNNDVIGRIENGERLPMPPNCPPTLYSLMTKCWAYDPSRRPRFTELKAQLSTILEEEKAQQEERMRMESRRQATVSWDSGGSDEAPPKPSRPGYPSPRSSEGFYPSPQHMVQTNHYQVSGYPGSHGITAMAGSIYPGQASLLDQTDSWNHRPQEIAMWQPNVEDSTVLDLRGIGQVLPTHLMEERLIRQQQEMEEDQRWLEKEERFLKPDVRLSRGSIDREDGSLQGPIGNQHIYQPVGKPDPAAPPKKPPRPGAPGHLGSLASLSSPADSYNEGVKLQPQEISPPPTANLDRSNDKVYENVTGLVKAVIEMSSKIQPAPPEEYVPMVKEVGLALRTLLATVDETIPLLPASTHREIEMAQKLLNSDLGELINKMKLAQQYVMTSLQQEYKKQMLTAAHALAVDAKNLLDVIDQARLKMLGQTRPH
UniProt P14616: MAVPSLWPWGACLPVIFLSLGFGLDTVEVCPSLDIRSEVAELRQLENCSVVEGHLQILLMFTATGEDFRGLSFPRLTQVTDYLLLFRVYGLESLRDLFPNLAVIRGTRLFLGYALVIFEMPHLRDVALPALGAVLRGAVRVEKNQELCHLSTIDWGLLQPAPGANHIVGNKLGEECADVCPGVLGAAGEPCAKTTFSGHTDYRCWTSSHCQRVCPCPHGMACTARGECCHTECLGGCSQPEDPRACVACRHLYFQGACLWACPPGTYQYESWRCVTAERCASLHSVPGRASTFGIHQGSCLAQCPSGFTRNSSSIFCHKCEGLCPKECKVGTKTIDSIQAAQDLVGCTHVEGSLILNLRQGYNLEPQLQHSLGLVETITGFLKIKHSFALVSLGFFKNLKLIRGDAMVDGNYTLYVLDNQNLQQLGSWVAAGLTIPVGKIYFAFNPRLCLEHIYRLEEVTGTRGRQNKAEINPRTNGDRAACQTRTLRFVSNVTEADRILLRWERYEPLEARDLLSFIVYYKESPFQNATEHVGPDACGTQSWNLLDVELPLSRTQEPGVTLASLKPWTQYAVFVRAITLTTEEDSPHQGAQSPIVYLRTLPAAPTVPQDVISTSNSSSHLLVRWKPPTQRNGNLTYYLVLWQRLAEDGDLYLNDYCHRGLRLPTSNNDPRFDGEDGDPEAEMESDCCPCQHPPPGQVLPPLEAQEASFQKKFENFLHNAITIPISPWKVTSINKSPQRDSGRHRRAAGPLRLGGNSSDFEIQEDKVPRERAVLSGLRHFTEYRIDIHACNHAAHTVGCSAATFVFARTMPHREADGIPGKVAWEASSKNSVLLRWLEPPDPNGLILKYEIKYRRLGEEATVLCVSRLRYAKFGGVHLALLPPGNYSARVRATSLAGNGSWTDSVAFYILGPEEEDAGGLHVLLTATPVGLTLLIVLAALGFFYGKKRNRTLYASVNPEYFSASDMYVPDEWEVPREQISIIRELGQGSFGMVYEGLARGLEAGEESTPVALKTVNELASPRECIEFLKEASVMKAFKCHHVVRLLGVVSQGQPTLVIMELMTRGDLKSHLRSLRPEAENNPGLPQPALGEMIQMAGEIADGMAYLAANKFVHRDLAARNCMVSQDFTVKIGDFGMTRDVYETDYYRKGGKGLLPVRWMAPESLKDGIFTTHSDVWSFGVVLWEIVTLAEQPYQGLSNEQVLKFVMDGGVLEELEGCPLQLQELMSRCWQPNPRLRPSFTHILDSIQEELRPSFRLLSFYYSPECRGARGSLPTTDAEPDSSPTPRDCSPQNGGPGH
UniProt P06241, whole entry, looked up: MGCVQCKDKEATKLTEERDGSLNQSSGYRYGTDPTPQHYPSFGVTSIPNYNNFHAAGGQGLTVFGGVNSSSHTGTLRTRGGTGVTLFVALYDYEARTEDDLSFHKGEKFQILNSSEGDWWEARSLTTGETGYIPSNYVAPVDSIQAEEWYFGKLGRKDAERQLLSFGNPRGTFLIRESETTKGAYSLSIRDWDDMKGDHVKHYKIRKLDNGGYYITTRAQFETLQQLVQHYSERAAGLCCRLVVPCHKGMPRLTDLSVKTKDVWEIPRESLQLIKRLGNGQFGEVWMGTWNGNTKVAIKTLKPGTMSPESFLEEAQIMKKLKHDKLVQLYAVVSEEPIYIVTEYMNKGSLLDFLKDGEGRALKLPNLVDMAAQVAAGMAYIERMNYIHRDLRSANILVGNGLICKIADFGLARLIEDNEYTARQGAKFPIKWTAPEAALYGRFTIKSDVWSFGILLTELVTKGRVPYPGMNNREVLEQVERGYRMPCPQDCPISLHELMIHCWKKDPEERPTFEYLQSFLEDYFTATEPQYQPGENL
UniProt Q01974, whole entry: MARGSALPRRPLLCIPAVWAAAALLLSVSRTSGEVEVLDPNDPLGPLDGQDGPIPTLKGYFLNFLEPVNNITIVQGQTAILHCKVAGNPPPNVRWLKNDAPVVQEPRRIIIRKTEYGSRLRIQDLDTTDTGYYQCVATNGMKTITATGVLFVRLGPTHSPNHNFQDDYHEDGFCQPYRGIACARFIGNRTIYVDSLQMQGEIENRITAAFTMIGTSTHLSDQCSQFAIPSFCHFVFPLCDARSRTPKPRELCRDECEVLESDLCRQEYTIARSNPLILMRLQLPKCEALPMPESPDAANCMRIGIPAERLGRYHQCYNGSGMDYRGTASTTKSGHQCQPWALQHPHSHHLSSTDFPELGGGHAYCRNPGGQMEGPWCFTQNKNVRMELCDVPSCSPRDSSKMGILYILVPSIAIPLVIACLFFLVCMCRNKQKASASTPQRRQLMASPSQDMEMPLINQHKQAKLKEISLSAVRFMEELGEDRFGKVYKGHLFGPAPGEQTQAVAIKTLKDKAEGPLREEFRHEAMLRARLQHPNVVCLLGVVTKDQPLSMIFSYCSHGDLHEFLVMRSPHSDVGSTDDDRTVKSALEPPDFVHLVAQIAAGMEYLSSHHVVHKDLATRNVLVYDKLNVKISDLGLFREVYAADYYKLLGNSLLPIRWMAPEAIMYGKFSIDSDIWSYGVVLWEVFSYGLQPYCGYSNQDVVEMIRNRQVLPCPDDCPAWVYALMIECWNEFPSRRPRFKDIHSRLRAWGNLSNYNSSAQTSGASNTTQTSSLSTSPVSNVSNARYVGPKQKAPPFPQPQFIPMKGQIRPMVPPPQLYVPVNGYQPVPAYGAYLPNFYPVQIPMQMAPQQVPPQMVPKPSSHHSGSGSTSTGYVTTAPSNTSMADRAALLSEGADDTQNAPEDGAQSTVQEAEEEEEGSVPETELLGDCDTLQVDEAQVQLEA
UniProt P48729: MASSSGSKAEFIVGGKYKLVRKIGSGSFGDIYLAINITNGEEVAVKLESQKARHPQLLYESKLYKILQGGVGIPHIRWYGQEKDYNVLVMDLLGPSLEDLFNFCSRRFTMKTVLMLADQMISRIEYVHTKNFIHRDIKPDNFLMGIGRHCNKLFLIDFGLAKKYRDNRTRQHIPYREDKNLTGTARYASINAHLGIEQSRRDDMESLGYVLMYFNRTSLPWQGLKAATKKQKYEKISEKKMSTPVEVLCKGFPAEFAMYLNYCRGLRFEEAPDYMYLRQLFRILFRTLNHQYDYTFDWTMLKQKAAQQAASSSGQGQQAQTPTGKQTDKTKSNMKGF
UniProt Q16288, whole entry, looked up: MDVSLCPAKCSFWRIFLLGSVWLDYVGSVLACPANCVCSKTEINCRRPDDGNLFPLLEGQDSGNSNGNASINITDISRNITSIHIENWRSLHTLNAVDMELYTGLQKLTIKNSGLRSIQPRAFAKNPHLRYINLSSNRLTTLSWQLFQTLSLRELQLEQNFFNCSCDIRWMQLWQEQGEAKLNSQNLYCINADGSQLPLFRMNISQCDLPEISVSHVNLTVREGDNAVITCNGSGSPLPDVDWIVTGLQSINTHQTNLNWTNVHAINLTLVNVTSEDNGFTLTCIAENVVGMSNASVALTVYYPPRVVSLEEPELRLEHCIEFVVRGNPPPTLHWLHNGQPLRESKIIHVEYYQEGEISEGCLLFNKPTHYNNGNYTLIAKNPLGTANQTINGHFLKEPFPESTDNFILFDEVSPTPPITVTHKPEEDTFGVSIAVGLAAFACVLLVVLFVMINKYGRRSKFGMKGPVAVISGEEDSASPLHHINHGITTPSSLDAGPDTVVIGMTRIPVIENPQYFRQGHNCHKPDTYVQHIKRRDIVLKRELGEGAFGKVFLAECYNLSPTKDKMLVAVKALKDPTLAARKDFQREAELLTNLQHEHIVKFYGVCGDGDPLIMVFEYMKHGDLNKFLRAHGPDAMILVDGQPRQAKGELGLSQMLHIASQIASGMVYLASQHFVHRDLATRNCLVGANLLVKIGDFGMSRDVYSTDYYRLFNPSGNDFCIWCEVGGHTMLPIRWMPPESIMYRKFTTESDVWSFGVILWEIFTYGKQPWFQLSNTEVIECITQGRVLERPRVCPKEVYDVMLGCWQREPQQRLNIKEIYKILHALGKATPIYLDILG
UniProt P49840: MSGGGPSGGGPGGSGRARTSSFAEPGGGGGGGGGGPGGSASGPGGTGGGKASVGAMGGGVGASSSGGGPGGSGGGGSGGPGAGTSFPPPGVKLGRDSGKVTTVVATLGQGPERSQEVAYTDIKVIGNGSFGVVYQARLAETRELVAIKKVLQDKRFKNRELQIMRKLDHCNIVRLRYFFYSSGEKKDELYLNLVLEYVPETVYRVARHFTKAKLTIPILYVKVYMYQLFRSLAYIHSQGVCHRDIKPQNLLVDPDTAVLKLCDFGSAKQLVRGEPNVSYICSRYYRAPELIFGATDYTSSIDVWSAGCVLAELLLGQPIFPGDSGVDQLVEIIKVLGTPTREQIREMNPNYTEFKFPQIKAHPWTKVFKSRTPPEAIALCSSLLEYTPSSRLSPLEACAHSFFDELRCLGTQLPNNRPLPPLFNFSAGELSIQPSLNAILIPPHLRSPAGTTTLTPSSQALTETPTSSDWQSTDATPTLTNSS
UniProt P07333, whole entry: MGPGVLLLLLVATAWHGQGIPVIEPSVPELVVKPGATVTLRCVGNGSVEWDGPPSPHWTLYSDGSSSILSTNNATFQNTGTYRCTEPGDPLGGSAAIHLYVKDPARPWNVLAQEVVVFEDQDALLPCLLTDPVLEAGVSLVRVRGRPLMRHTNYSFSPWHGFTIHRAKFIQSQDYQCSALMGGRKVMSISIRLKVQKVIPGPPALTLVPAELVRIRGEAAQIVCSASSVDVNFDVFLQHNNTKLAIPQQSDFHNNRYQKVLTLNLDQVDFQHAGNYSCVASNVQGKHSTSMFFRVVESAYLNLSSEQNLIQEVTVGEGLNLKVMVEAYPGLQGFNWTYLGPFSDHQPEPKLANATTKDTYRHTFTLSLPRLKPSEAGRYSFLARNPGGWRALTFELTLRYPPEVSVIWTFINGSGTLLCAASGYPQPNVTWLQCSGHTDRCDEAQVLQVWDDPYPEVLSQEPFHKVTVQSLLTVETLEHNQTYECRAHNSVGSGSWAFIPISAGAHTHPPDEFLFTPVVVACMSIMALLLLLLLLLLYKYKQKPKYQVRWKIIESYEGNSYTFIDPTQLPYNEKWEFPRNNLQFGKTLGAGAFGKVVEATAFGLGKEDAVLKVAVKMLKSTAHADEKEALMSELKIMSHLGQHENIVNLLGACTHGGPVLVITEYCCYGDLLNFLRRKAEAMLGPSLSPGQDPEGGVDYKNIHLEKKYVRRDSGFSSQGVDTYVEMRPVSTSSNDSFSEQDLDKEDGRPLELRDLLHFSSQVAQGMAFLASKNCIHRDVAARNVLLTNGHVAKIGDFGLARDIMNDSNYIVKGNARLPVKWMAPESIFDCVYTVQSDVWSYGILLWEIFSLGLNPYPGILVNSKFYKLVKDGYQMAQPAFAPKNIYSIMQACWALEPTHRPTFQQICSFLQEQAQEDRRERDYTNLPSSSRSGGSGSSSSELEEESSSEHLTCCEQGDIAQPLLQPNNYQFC

Measured: number of time points

PTK2 (UniProt Q05397)
1: [1]
0: [2] | [3] | [4] | [5] | [6] | [7] | [8] | [9]; 2.5 µM | [9]; 10 µM | [10] | [11] | [12] | [13] | [14] | [15] | [16] | [19] | [20]
4: [17] | [18]

INSRR (UniProt P14616)
2: [13]
0: [1] | [2] | [3] | [4] | [5] | [6] | [7] | [8] | [9]; 2.5 µM | [9]; 10 µM | [10] | [11] | [12] | [14] | [15] | [16] | [17] | [18] | [19] | [20]

FYN (UniProt P06241)
0: [1] | [3] | [4] | [5] | [6] | [7] | [8] | [9]; 2.5 µM | [9]; 10 µM | [10] | [11] | [12] | [13] | [14] | [16] | [19] | [20]
1: [2] | [15]
4: [17] | [18]

ALK (UniProt Q9UM73)
0: [1] | [2] | [3] | [4] | [5] | [6] | [7] | [8] | [9]; 2.5 µM | [9]; 10 µM | [10] | [11] | [12] | [13] | [14] | [15] | [16] | [17] | [18] | [19] | [20]

ERBB4_R711C (clone: ERBB4_mut) (UniProt Q15303)
0: [1] | [2] | [3] | [4] | [5] | [6] | [7] | [8] | [9]; 2.5 µM | [9]; 10 µM | [10] | [11] | [12] | [13] | [14] | [15] | [16] | [17] | [18] | [19] | [20]

ARAF (UniProt P10398)
0: [1] | [2] | [3] | [4] | [5] | [6] | [7] | [8] | [9]; 2.5 µM | [9]; 10 µM | [10] | [11] | [12] | [13] | [14] | [15] | [16] | [17] | [18] | [19] | [20]

ROR2 (UniProt Q01974)
0: [1] | [2] | [3] | [4] | [5] | [6] | [7] | [8] | [9]; 2.5 µM | [9]; 10 µM | [10] | [11] | [12] | [13] | [14] | [15] | [16] | [17] | [18] | [19] | [20]

ZAK (UniProt Q9NYL2)
0: [1] | [2] | [3] | [4] | [5] | [6] | [7] | [8] | [9]; 2.5 µM | [9]; 10 µM | [10] | [11] | [12] | [13] | [14] | [15] | [16] | [17] | [18] | [19] | [20]

CSNK1A1 (UniProt P48729)
4: [20]
0: [1] | [2] | [3] | [4] | [5] | [6] | [7] | [8] | [9]; 2.5 µM | [9]; 10 µM | [10] | [11] | [12] | [13] | [14] | [15] | [16] | [17] | [18] | [19]

NTRK3 (UniProt Q16288)
0: [1] | [2] | [3] | [4] | [5] | [6] | [7] | [8] | [9]; 2.5 µM | [9]; 10 µM | [10] | [11] | [12] | [13] | [14] | [15] | [16] | [17] | [18] | [19] | [20]

GSK3A (UniProt P49840)
0: [1] | [2] | [3] | [4] | [5] | [6] | [7] | [8] | [9]; 2.5 µM | [9]; 10 µM | [10] | [11] | [12] | [13] | [14] | [15] | [16] | [17] | [18] | [19] | [20]

CHEK2 (UniProt O96017)
0: [1] | [2] | [3] | [4] | [5] | [6] | [7] | [8] | [9]; 2.5 µM | [9]; 10 µM | [10] | [11] | [12] | [13] | [14] | [15] | [16] | [17] | [18] | [19] | [20]

Reprinted from the entries so far (four entries):
FYN (UniProt P06241)
0: [1] | [3] | [4] | [5] | [6] | [7] | [8] | [9]; 2.5 µM | [9]; 10 µM | [10] | [11] | [12] | [13] | [14] | [16] | [19] | [20]
1: [2] | [15]
4: [17] | [18]

ALK (UniProt Q9UM73)
0: [1] | [2] | [3] | [4] | [5] | [6] | [7] | [8] | [9]; 2.5 µM | [9]; 10 µM | [10] | [11] | [12] | [13] | [14] | [15] | [16] | [17] | [18] | [19] | [20]

ERBB4_R711C (clone: ERBB4_mut) (UniProt Q15303)
0: [1] | [2] | [3] | [4] | [5] | [6] | [7] | [8] | [9]; 2.5 µM | [9]; 10 µM | [10] | [11] | [12] | [13] | [14] | [15] | [16] | [17] | [18] | [19] | [20]

ARAF (UniProt P10398)
0: [1] | [2] | [3] | [4] | [5] | [6] | [7] | [8] | [9]; 2.5 µM | [9]; 10 µM | [10] | [11] | [12] | [13] | [14] | [15] | [16] | [17] | [18] | [19] | [20]

More entries

TYK2 (UniProt P29597)
0: [2] | [3] | [5] | [6] | [7] | [8] | [9]; 2.5 µM | [9]; 10 µM | [10] | [11] | [12] | [13] | [14] | [15] | [16] | [17] | [18] | [19] | [20]
5: [1] | [4]

CSF1R (UniProt P07333)
0: [1] | [2] | [3] | [4] | [5] | [6] | [7] | [8] | [9]; 2.5 µM | [9]; 10 µM | [10] | [11] | [12] | [13] | [14] | [15] | [16] | [17] | [18] | [19] | [20]

Reference: the supplement of paper PMC12823440, “Inhibitors supercharge kinase turnover through native proteolytic circuits” (Nature, 2025)
